Experimental data published in PubChem BioAssay AID504648 (National Center for Advancing Translational Sciences (NCATS), 2011).
Among all 390,000 compounds or so, about 610 (0.16%) were called active. This list was built around the results that the source calls inconclusive (neither active nor inactive); the mix of calls is not that of the screen. Calls come from the whole dose curve; as a rule, active = well fitted inhibition curve with a large enough effect; inconclusive = small, poorly fitted or top-dose-only effect, or effect the other way, or another doubt; inactive = no such curve, though single readings can be large or run the other way. A potency beside an inconclusive call is a rough fit, not a confirmed value.

experiment: Nrf2 qHTS screen for inhibitors: counterscreen for cytotoxicity; settings: A549 ARE-Fluc cells, CellTiter-Fluor viability, 18-24 h; series mostly up to 46 µM
How it was run: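 A549 ARE-Fluc cells in 5% FBS OPTI-MEM, 5000 cells/well, rested 2 h then exposed to compounds in concentration-response for 18-24 h at 37 °C. Viability by CellTiter-Fluor fluorescence (Ex 405/Em 525) after 30 min; luciferase luminescence (BugLite, 15 min, RT) read afterwards.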
Potency is the fitted concentration of half-maximal effect.

| SMILES | Potency |
| --- | --- |
| CCc1cc(C(N)=O)c(NC(=O)c2ccc(OC)cc2)s1 | inconclusive: 16.4 µM [falling, partial curve, poor fit] |
| O=C(N/N=C/c1ccc(O)cc1)c1[nH]c2ccc(Br)cc2c1-c1ccccc1 | inconclusive: 5.8 µM [falling, partial curve] |
| CCn1c(C(=O)N2CCCC(C(=O)NCCCc3ccccc3)C2)cc2sccc21 (stereo not given) | inconclusive: 29.1 µM [falling, single point] |
| CC1(C)CC(=O)C([N+](=O)[O-])=C(NCCCC(=O)O)C1 | inactive |
| O=C1c2ccccc2C(=Nc2ccccc2)C1c1cccc(Br)c1 (stereo not given) | inconclusive: 23.1 µM [falling, partial curve, poor fit] |
| COc1ccccc1Nc1ncc(C(=O)Nc2ccc(OC)c(OC)c2)c2ccccc12 | inactive |
| Cn1c(SCC(=O)Nc2ccc(NC(=O)c3cccc(F)c3)cc2)nnc1-c1ccncc1 | inactive |
| COc1ccc(-c2cc(-c3ccccc3)nc(N)n2)c(O)c1 | inactive |
| COc1ccc(/C=N/NC(=O)c2ccc(CSc3nc(C)cc(C)n3)cc2)c(OC)c1OC | inactive |
| CCOc1cccc(-c2nn(-c3ccccc3)cc2/C=C(/C#N)C(=O)NCCCn2ccnc2)c1 | inconclusive: 29.1 µM [falling, partial curve, poor fit] |
| CN1/C(=C/c2cc[n+](C)c3ccccc23)C=Cc2ccccc21 | active: 20.6 µM |
| COc1ccccc1NC(=O)c1cc2c(CO)cnc(C)c2oc1=Nc1ccc(OC)c(OC)c1 | inactive |
| CCN(CC)c1ccc(/C=C(/C#N)c2nc3ccccc3[nH]2)c(OC(C)C)c1 | inconclusive: 23.1 µM [falling, partial curve, poor fit] |
| CCN1C(=S)SC(=O)C1=C1C=C(C)N(CCO)C(C)=C1 | inconclusive: 23.1 µM [falling, partial curve, poor fit] |
| CCn1c(=O)c2c(nc(SCC(=O)Nc3ccccc3)n2C)n(C)c1=O | inactive |
| Cn1c(C(=O)NCCOc2ccccc2Cl)cc(=O)n(C)c1=O | inactive |
| CCS(=O)(=O)c1nc(S(=O)(=O)c2ccc(Cl)cc2)c(NCc2ccco2)s1 | inconclusive: 1.16 µM [activator, full curve, poor fit] |
| O=C(CSc1nnc(NC(=O)c2ccco2)s1)NC1CCCCC1 | inconclusive: 2.06 µM [falling, partial curve, poor fit] |
| O=C(CSc1ncnc2[nH]ncc12)Nc1cccc(Oc2ccccc2)c1 | inactive |
| O=C1c2ccccc2S(=O)(=O)N1CCCN1C(=O)c2ccccc2S1(=O)=O | inconclusive: 3.66 µM [activator, partial curve, poor fit] |

Reformatted: two of the compounds above
O=C(N/N=C/c1ccc(O)cc1)c1[nH]c2ccc(Br)cc2c1-c1ccccc1
  Potency: inconclusive: 5.8 µM [falling, partial curve]
COc1ccc(-c2cc(-c3ccccc3)nc(N)n2)c(O)c1
  Potency: inactive
